According to paper PMC10484734, “TLK1-mediated RAD54 phosphorylation spatio-temporally regulates Homologous Recombination Repair” (Nucleic Acids Research, 2023):
These are yes or no findings as the source states them, for the method shown. In cells and extracts the contact can be indirect. Some entries that bind do so weakly or less than the wild type.

Sequences of proteins named here, by UniProt entry; tags and fusion partners are left off.
UniProt Q9UKI8: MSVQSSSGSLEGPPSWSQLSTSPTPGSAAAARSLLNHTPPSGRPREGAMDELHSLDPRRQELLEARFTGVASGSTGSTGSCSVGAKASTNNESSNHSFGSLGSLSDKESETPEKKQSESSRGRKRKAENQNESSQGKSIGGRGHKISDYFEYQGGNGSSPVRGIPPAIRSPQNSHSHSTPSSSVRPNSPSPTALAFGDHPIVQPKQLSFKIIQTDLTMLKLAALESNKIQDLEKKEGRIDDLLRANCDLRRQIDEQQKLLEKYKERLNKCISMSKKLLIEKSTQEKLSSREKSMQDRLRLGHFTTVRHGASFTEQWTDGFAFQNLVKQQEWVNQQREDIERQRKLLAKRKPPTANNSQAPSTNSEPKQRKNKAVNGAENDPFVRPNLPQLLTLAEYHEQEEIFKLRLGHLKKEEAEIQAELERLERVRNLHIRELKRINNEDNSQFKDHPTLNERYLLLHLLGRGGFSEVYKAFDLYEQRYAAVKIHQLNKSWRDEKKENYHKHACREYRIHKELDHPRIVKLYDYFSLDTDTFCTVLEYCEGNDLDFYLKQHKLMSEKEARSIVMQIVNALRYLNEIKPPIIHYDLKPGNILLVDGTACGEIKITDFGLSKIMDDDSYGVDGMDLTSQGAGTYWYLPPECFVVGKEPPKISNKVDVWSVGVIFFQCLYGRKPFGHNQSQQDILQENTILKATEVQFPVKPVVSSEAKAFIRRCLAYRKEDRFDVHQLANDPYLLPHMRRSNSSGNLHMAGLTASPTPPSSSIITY

Target: T1, endogenous RAD54 of HeLa cells (human (endogenous in HeLa)) (UniProt Q92698)
T1 sequence: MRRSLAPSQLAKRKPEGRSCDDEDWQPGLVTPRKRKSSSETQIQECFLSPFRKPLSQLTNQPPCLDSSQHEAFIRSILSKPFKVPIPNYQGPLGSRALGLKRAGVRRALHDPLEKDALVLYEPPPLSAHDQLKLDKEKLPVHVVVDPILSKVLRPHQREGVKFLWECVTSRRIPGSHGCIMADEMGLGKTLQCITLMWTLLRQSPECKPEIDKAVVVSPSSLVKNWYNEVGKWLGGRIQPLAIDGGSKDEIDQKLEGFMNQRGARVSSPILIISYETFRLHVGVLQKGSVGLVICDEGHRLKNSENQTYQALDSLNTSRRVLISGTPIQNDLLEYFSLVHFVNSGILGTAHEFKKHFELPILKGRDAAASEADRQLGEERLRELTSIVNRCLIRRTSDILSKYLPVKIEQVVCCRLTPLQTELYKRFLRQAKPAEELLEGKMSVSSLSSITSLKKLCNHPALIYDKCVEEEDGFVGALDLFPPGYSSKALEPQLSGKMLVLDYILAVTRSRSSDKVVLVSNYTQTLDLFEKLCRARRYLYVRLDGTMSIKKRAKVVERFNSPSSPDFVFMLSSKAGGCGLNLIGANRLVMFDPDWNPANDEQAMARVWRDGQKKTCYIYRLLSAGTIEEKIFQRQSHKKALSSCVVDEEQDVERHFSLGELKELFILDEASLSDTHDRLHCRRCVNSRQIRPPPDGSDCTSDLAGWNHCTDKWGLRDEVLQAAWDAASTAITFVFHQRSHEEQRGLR
Experiment: co-IP; RAD54 antibody (sc-166730) or mouse IgG isotype on Protein A/G agarose; HeLa lysates in RIPA buffer, 1 mg total protein, overnight at 4°C; cells unirradiated or treated with IR and recovered 0.5-12 h

binding: binds
Substance: endogenous TLK1 of HeLa cells (from UniProt Q9UKI8 1-766) (enzyme)
